Data on one substance can be found in paper doi:10.1101/2025.09.18.677151.

Protein sequences, listed by entry. Tags and fused reporters are not part of them. Lines headed by an entry give the natural chain unless they say otherwise; changes in a name come on top.
UniProt P40120: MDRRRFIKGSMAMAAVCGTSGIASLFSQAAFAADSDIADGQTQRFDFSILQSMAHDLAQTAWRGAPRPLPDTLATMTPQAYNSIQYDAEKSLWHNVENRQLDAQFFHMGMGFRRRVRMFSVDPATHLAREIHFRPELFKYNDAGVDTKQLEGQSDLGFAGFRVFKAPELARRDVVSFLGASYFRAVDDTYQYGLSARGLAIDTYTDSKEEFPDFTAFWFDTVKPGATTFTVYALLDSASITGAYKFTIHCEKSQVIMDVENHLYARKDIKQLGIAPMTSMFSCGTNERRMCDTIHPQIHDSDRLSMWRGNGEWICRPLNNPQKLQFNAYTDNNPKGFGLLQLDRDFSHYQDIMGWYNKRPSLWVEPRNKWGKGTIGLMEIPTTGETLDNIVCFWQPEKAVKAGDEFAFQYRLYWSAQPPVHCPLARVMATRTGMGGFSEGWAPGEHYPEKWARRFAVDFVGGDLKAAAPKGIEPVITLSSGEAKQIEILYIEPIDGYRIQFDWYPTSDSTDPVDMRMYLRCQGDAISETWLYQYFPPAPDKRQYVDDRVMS

Results are given in words; binding and its absence hold for the method and conditions named. Binding can be weak; no strength is given.

The target in this assay is T1, E. coli TatC (subunit of the overexpressed TatBC complex) (E. coli) (UniProt P69423).
T1 sequence: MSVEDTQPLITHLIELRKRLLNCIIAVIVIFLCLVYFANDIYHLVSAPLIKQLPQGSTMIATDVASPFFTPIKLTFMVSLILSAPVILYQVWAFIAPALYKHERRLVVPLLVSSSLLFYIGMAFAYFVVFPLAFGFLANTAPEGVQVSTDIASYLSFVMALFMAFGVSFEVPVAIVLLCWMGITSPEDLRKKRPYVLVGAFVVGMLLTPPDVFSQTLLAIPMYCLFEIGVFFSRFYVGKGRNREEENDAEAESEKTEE
Put plainly: cryo-EM structure.

For “E. coli MdoD, full length with its Tat signal peptide (from UniProt P40120)”, the binding entry is “binds”.
